Test results published in article doi:10.1101/199539.
Like-named read-outs stand apart in the source and are kept apart here. These are yes or no findings as the source states them, for the method shown. Binding seen in cells or lysates may run through a third protein. Some binding calls cover weakened binding; strength is not graded here.

Chains of the proteins cited; added tags and fusions are not shown.
UniProt Q96GY3: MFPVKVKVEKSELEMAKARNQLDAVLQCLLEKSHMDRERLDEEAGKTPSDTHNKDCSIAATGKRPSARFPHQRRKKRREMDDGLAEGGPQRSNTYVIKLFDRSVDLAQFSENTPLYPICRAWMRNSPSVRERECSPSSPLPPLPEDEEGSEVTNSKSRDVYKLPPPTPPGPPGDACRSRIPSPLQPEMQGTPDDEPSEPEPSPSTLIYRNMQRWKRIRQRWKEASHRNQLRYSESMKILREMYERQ
UniProt P10244: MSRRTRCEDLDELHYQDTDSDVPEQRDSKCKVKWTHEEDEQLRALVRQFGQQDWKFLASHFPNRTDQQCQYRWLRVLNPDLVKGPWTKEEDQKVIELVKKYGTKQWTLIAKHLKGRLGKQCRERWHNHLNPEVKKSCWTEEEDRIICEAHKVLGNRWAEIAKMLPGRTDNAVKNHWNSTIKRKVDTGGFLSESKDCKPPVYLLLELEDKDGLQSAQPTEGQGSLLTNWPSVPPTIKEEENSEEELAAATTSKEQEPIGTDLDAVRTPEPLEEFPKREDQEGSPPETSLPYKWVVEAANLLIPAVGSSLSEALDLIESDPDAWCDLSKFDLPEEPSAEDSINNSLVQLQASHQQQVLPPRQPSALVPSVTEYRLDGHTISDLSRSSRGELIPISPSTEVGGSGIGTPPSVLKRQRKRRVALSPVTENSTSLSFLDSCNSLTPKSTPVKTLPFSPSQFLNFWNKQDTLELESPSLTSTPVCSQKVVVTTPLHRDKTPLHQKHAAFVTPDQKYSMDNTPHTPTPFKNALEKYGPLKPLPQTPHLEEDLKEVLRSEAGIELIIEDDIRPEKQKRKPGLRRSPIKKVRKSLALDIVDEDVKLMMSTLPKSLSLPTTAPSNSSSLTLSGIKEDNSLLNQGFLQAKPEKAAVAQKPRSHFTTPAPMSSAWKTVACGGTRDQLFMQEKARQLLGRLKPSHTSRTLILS
UniProt Q5TKA1: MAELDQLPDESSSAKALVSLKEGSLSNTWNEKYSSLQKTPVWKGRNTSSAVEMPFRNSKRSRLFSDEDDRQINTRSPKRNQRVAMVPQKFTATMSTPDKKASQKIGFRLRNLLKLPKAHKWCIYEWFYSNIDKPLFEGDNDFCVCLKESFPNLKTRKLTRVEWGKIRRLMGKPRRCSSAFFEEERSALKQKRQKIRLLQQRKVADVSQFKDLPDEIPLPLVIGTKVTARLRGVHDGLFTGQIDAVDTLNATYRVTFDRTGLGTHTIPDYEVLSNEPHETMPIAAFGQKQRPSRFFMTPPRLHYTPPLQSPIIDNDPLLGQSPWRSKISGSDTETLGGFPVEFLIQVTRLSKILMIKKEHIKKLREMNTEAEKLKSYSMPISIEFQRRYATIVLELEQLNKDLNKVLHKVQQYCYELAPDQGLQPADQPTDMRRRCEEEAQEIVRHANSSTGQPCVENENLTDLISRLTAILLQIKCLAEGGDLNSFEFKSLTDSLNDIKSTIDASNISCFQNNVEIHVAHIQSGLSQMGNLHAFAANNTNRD
UniProt Q08999: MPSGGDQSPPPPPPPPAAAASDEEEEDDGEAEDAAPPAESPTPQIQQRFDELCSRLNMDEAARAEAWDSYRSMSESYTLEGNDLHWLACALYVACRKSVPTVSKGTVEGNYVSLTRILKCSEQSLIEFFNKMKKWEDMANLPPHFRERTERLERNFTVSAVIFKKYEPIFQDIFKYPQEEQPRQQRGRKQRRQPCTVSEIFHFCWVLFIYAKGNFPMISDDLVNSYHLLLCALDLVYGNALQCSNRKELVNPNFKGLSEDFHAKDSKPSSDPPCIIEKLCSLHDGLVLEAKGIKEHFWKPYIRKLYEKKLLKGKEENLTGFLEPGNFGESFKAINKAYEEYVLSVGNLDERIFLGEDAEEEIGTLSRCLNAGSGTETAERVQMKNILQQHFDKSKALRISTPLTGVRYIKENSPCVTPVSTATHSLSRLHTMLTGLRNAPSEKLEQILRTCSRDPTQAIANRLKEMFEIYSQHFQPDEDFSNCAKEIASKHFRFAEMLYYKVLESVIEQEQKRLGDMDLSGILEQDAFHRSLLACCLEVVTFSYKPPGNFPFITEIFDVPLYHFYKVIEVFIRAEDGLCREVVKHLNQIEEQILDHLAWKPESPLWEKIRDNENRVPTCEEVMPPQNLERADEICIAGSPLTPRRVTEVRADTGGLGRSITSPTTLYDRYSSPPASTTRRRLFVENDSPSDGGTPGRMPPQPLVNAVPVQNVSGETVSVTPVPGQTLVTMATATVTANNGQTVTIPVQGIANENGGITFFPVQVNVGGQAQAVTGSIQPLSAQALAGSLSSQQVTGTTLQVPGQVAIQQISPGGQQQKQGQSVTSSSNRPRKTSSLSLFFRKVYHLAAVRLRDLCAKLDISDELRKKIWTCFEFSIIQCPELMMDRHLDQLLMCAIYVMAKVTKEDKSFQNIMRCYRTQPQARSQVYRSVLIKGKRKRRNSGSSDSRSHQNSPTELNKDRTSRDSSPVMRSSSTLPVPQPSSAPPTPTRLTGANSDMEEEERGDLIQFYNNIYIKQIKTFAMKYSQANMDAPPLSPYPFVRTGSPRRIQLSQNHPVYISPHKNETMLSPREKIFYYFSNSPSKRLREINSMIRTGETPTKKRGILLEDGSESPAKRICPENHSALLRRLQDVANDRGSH

Tests used:
[1] = biological target: LIN37 (human (endogenous in SKOV3 and BJ-hTERT)) (UniProt Q96GY3); assay: co-IP
[2] = biological target: LIN37 (human (endogenous in SKOV3 and BJ-hTERT)) (UniProt Q96GY3); assay: co-IP; remark: listed apart in the source

Row | Substance | binding [1] | binding [2]
1 | HA-FLAG-B-Myb (from UniProt P10244 1-700) | binds | –
2 | LIN52-V5 (from UniProt Q52LA3 1-112) | binds | –
3 | endogenous LIN52 (from UniProt Q52LA3 1-112) | binds | –

Continued, values first:

Row | binding [1] | binding [2] | Substance
4 | binds | – | LIN9 (from UniProt Q5TKA1 1-542)
5 | binds | binds | p130 (from UniProt Q08999 1-1139)
